No constants are given. Whether binding was seen depends on the method and setting. In cells and extracts the contact can be indirect. Some binding calls cover weakened binding; strength is not graded here. Where a sequence is shown, tags or fusion partners need not be part of it.
Target: T1, TNFR-Wengen-Flag (TNFR-wgn-Flag) (Drosophila) (UniProt Q9VWS4)
T1 sequence: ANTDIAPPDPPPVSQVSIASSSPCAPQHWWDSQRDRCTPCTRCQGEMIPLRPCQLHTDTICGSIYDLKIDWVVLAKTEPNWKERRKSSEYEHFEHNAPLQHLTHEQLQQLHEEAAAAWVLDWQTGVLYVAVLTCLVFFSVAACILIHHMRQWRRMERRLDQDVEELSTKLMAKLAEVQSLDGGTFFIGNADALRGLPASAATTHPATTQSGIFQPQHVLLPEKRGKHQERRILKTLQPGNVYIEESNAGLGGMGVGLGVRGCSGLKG
Assay: co-IP

binding: binds
B1: FGFR-Breathless-GFP (FGFR-btl-GFP), full length (receptor, UniProt Q09147 20-1052)
chain: DLGCDYGHHRCYIDVTVENSPRQRHLLSDMDITLQCVRPMAKWFYEDKFQLRATLLRLERAQSGNSGNYGCLDSQNRWYNISLVVGHKEPVGNDIASFVKLEDAPALPESDLFFQPLNESRSLKLLQPLPKTVQRTAGGLFQLNCSPMDPDAKGVNISWLHNDTQILGGRGRIKLKRWSLTVGQLQPEDAGSYHCELCVEQDCQRSNPTQLEVISRKHTVPMLKPGYPRNTSIALGDNVSIECLLEDSALEPKITWLHKGNADNIDDLLQRLREQSQLPVDVTRLITRMDEPQVLRLGNVLMEDGGWYICIAENQVGRTVAASYVDLYSPSDTTTVRTTTTTTVASPIPTASTGEDNDDDVENPAAEASGGVGPPVFRKELKRLQHSLSGNTVNLACPVYGKANITWTKDKKPLNRELGVYVQKNWTLRFVEATSEDSGLYNCKVCNAWGCIQFDFSVQINDRTRSAPIIVVPQNQTVKVNGSLVMKCTVYSDLHPTVSWKRVVLKNASLDGLKSVEIQNLNFTVTNDSVVLTLRNVTFDQEGWYTCLASSGLGRSNSSVYLRVVSPLPPLEIYALLHAHPLGFTLAAITIVALFLLGSAFITFMLRRLRREKLLKLRIETVHQWTKKVIIYRPGGEEGSGCSSGDLQMPVIRIEKQRTTVSTTGTGGTDPAQGFNEYEFPLDSNWEIPRQQLSLGSILGEGAFGRVVMAEAEGLPRSPQLAETIVAVKMVKEEHTDTDMASLVREMEVMKMIGKHINIINLLGCCSQGGPLWVIVEYAPHGNLKDFLKQNRPGAPQRRSDSDGYLDDKPLISTQHLGEKELTKFAFQIARGMEYLASRRCIHRDLAARNVLVSDGYVMKIADFGLARDIQDTEYYRKNTNGRLPIKWMAPESLQEKKYDSQSDVWSYGVLLWEIMTYGDQPYPHILSAEELYSYLITGQRMEKPAKCSLNIYVVMRQCWHFESCARPTFAELVESFDGILQQASSNPNDAYLDLSMPMLETPPSSGDEDDGSDTETFRETSPLRYQYTYKFN

— doi:10.1101/2023.01.26.525651
